Measurements reported in PubChem BioAssay AID686943 (Drosophila RNAi Screening Center, 2013)

Aim: 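Search across the genome for regulators of signalling from receptor tyrosine kinase to ERK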 (primary screen)
System: Drosophila S2R+ haemocyte-like cells expressing YFP-tagged ERK (Rolled)
Reagent: long dsRNA against Drosophila genes
Conditions: insulin stimulation versus unstimulated cells; dose and duration not given
Measured: 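Antibody staining for doubly phosphorylated ERK divided by ERK-YFP signal, as plate z-scores, in insulin-treated and untreated cells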
Direction: replicate 1, z-score of dpERK with insulin and replicate 2, z-score of dpERK with insulin: higher = more active ERK per ERK-YFP after insulin
The deposit covers about 23,000 reagents; this is a random part of those that have a named target and a result. 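Extra replicates exist only for a retested subset of genes; insulin dose and duration not given; both raised and lowered dpERK matter.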 The numbers tell different reagents against one gene apart. A plus sign joins genes that one reagent is predicted to hit. Not all columns of the deposit are shown. No sequences are given here. Not given: the amount of reagent, the time to read-out.

predicted target	reagent	replicate 1, z-score of dpERK with insulin	replicate 2, z-score of dpERK with insulin
cas	1	-0.04	-0.25
SMC2	1	-0.04	-0.13
Sema2a	1	-0.27	-0.44
Piezo	1	0.34	0.53
Piezo	2	0.19	-1
CG30286	1	-0.13	-0.94
CG30105	1	-0.3	0.34
CG34300	1	-0.58	0.12
Drgx	1	0.19	0.32
Drgx	2	0.04	-0.53
Ripalpha	1	0.4	-0.01
Agpat3	1	0.73	0.42
CG7362	1	0	0.95
nolo	1	0.82	0.65
nolo	2	-0.01	0.24
nolo	3	0.15	0.19
Trf5	1	-0.85	-0.67
Qsox3	1	0.13	0.22
Daao2	1	0.26	-0.28
Gbeta5	1	-0.24	-0.06
Rab19	1	-0.18	0.01
CG13654	1	1.21	0
nonC	1	-1.16	-1.06
nonC	2	-0.78	-1.39
up	1	0.48	-0.84
Taf10b	1	0.15	1.11
CG15544	1	1.21	-0.26
Ktch	1	7.19	1.11
CG11656	1	-0.25	-0.03
Xport-A + Xport-B	1	1.89	0.91
CG17625	1	0.2	0
lncRNA:noe	1	1.04	0.01
CheB42c	1	0.49	0.06
CG16727	1	0.78	0.88
CG14564	1	0.45	0.55
CG14564	2	0.03	1.28
Tsp42Eh	1	-0.73	0.23
CG31248	1	0.23	0.78
CG2852	1	-0.13	-0.34

A portion taken from the entries so far, for reference:
predicted target	reagent	replicate 1, z-score of dpERK with insulin	replicate 2, z-score of dpERK with insulin
CG15544	1	1.21	-0.26
Ktch	1	7.19	1.11
CG11656	1	-0.25	-0.03
